In one assay the target is Myc-PRKN (UniProt O60260). The experiment in a line: pull-down; recombinant His-METTL3 and Myc-PRKN incubated with Myc-Beads in RIPA buffer (1% NP-40, 0.25% sodium deoxycholate, 50 mmol/L Tris-HCl pH 7.4, 150 mmol/L NaCl) at 4°C for 1 h; Myc peptide as control; washed four times; Western blot with anti-METTL3 and anti-PRKN; both purified.
For a further assay, the target named is GFP-PRKN (UniProt O60260). The experiment in a line: co-IP; HEK293T cells transfected with the tagged bait (GFP-PRKN or Flag-METTL3) or empty vector; lysed in RIPA buffer (50 mM Tris pH 7.4, 0.25% sodium deoxycholic acid, 1% Triton, 150 mM NaCl, 1 mM EDTA); anti-GFP beads or anti-Flag beads; beads washed five times with RIPA; Western blot. Background: In western blotting, separated proteins are transferred to a membrane and probed.

Sequences of proteins named here, by UniProt entry; tags and fusion partners are left off.
UniProt O60260: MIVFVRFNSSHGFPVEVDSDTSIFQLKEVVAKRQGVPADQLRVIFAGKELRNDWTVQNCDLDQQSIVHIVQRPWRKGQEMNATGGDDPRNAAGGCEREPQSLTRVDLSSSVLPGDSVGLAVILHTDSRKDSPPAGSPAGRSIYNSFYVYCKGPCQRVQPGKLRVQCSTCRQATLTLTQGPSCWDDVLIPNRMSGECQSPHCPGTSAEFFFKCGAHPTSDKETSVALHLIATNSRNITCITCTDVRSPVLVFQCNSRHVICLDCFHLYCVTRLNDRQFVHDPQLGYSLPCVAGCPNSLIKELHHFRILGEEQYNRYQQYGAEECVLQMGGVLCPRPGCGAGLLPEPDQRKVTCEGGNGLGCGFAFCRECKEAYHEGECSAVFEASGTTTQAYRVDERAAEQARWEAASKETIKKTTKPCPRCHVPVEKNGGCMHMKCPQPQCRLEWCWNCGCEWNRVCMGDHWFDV
UniProt Q86U44: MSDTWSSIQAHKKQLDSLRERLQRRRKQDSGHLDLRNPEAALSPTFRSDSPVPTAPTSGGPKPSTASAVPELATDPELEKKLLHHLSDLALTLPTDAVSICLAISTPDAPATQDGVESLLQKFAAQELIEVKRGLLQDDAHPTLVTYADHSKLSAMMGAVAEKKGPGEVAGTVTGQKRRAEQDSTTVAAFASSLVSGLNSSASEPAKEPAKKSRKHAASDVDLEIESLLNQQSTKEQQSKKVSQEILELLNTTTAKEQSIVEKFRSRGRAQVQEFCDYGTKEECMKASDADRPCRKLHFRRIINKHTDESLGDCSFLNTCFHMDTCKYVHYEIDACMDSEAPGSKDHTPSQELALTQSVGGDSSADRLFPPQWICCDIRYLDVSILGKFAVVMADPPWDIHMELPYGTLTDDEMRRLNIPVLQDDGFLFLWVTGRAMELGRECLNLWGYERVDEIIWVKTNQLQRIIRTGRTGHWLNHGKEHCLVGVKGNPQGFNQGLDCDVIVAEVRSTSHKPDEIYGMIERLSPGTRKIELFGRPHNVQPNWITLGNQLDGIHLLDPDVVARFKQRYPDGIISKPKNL

Assay [1] has as its target Flag-METTL3 (human (amplified from HEK293T mRNA)) (UniProt Q86U44). Described as above.

These are yes or no findings as the source states them, for the method shown. For part of these data: In cells and extracts the contact can be indirect. Some entries that bind do so weakly or less than the wild type.

On to His-METTL3 (from UniProt Q86U44 1-580), for which, in the assay with Myc-PRKN, the binding result is on record as “binds”. Take “METTL3 (endogenous, HEK293T) (from UniProt Q86U44 1-580)”: the binding result in the assay with GFP-PRKN is “binds”.

Turning to “PRKN (endogenous, HEK293T) (from UniProt O60260 1-465)”, the binding entry in assay [1] was “binds”.

Source of the values: paper PMC12745842.
